13 targets from the supplement of paper PMC6411743 can be followed below.

By UniProt entry, the sequences of proteins in these tests, tags left out. Where a name states a change or a piece, a line headed by the entry shows the natural chain unless it says otherwise.
UniProt Q00610: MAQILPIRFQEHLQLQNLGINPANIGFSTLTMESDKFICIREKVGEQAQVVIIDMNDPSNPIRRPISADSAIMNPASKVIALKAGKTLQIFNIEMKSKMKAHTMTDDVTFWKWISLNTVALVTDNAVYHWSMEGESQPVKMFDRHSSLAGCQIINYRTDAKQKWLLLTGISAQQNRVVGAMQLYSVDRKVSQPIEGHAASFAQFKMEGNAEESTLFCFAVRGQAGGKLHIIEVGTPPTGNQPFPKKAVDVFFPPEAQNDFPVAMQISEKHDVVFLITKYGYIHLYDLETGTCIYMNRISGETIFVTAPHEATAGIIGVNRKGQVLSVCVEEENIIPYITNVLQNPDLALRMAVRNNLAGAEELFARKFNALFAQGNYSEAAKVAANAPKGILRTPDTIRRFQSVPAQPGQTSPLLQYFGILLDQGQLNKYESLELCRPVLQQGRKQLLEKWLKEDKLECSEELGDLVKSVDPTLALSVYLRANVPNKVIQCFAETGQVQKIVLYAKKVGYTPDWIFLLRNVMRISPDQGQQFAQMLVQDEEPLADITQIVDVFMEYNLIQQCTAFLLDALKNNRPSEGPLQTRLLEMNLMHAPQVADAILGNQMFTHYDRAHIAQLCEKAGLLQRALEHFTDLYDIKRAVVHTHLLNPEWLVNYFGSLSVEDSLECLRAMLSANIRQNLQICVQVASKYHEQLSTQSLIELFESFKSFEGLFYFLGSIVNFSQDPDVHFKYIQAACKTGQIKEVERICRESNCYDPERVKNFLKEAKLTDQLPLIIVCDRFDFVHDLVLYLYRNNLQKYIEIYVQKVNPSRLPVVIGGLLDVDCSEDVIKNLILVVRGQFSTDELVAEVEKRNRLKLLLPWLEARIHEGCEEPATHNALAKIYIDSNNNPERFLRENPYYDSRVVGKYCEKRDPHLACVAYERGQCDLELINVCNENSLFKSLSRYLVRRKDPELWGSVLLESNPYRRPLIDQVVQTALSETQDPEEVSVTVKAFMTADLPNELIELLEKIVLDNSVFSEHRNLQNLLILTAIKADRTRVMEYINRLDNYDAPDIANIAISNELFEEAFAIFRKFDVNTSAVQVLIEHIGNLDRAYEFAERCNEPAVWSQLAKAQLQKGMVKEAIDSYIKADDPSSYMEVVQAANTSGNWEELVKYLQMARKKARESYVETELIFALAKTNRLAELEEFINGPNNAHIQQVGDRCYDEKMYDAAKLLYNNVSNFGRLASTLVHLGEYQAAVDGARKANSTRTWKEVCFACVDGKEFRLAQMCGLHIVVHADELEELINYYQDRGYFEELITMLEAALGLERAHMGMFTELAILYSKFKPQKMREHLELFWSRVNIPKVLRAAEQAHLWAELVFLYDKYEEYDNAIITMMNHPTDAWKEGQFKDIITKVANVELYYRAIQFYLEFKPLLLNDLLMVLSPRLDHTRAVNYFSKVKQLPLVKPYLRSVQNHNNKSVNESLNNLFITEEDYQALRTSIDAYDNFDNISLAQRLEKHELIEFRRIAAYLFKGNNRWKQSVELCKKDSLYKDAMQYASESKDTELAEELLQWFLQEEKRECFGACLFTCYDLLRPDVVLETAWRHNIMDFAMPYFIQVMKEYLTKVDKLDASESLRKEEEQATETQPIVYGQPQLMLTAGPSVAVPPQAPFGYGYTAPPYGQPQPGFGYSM
UniProt Q9NZM3: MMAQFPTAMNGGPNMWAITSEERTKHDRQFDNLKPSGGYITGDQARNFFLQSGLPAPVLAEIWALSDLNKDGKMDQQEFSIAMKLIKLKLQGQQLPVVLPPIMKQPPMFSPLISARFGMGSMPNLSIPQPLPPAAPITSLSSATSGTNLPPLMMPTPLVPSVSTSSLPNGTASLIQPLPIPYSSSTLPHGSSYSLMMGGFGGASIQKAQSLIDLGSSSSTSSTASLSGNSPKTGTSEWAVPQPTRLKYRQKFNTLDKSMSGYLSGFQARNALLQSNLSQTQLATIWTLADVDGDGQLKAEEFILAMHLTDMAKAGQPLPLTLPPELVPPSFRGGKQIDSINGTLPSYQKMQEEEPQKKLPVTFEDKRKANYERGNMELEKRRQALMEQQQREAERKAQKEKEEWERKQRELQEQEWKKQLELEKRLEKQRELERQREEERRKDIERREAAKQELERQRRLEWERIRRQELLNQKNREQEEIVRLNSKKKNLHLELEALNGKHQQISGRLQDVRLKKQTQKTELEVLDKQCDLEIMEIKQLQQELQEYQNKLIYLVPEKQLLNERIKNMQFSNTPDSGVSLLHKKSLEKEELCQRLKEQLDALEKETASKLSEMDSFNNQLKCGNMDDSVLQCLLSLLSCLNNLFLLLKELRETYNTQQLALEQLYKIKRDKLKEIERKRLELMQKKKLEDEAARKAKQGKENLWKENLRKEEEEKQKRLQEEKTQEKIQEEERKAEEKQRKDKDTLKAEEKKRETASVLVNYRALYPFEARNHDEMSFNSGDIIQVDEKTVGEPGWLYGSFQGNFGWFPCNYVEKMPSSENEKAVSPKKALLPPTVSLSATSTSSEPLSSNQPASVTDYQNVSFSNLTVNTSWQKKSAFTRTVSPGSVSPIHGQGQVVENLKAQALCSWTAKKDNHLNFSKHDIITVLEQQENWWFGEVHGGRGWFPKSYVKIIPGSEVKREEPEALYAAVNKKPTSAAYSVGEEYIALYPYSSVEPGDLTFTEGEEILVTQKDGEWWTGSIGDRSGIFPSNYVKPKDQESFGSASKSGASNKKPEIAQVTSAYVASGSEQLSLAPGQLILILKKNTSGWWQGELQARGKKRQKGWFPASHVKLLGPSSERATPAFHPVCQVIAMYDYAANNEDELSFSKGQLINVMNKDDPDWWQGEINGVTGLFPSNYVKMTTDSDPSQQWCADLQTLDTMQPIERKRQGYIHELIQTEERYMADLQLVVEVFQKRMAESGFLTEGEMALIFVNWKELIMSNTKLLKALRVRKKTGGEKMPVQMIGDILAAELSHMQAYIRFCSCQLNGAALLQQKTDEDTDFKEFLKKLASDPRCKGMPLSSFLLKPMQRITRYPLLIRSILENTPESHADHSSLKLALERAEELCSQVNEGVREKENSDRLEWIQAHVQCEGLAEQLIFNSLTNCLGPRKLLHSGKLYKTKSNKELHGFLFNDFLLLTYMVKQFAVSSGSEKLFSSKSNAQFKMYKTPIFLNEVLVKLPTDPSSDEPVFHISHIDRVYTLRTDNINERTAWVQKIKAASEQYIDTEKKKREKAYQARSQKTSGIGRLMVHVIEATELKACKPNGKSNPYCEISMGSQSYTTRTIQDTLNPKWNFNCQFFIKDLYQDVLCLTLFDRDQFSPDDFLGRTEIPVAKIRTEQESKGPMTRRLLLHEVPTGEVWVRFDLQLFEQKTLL
UniProt P25787: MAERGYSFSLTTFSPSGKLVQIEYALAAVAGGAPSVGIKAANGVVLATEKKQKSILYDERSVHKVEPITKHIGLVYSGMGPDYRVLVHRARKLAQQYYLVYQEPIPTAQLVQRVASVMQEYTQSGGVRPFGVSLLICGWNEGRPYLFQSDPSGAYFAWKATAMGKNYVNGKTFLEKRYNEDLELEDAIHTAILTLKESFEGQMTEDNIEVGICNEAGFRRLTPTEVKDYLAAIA
UniProt Q9P2T1: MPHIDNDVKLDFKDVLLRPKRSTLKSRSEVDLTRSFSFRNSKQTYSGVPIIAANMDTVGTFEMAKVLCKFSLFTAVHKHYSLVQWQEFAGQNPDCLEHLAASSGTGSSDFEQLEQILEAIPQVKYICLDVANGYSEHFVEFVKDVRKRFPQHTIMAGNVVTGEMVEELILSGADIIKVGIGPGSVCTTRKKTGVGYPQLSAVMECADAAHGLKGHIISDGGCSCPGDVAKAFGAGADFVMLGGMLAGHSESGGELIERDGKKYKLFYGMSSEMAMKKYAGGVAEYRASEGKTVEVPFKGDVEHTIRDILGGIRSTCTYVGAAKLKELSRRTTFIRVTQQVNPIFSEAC
UniProt P49720: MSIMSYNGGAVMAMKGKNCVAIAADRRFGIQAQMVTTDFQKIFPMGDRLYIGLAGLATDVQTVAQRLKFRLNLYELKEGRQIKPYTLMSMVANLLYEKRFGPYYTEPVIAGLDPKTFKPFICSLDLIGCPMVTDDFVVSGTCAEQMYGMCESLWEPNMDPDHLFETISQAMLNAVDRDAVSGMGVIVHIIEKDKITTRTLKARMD
UniProt O14979: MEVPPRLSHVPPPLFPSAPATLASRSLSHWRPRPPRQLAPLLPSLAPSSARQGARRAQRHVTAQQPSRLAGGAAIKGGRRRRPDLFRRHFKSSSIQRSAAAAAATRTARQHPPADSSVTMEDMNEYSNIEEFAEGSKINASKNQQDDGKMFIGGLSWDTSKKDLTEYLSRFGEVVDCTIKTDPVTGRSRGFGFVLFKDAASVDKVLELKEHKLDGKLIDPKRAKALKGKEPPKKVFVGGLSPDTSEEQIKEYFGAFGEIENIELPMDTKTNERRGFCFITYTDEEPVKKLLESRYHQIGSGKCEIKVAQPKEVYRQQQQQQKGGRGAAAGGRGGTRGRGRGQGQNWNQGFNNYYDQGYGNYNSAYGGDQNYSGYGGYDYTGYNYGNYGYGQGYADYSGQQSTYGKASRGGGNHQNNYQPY
UniProt Q9NZM4: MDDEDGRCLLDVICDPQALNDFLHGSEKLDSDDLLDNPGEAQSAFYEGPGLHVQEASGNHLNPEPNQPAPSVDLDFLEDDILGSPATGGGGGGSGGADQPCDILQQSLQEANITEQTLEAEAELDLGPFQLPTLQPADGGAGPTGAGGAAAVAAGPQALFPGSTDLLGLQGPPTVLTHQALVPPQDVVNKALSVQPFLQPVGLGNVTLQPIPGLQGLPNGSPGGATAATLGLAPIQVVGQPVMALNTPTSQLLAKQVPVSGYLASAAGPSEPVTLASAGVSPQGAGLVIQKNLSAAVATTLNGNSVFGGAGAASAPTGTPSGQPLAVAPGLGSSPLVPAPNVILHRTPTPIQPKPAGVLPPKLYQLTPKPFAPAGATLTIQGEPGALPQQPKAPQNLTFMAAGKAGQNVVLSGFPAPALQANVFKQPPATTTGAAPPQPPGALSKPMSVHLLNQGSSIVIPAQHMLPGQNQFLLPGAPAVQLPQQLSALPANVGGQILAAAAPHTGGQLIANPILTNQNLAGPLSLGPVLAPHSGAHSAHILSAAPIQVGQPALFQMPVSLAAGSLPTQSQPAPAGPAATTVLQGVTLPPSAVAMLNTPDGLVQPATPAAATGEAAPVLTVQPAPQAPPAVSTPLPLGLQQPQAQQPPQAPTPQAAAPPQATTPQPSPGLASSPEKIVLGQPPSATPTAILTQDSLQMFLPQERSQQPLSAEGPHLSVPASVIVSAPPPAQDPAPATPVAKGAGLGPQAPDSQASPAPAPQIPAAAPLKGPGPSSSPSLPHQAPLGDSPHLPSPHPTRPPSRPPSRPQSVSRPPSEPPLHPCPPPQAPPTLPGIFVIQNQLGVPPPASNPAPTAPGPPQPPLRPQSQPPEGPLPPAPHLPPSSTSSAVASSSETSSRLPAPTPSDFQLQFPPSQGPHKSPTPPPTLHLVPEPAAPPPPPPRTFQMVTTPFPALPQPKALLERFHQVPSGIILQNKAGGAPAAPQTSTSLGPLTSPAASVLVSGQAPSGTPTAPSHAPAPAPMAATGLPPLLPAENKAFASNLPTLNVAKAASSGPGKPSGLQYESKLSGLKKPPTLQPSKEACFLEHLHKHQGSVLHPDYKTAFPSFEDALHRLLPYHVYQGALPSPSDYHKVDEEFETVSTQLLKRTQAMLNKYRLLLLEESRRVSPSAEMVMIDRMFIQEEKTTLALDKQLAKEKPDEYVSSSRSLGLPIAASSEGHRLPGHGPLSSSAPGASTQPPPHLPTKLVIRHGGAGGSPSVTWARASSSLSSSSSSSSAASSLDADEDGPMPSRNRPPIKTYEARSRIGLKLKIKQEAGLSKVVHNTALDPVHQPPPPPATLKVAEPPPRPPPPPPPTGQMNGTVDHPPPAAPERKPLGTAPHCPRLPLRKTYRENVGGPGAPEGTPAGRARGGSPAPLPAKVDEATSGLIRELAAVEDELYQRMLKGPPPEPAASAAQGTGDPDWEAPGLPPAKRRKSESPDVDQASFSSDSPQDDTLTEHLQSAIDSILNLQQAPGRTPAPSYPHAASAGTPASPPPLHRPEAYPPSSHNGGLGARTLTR
UniProt Q8WWP7: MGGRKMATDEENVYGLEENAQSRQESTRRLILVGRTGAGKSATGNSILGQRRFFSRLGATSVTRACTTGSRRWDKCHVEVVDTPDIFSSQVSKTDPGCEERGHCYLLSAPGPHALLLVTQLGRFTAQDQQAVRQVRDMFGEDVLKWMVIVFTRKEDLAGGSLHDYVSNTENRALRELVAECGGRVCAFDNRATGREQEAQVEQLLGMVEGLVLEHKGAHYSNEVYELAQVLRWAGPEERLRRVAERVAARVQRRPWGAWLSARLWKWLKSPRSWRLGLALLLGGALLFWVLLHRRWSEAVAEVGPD

± gives the standard deviation of the averaged measurements. Some of the results follow.

Compound in this test: Nc1nc2c(ncn2[C@@H]2O[C@H](COP(=O)(O)OP(=O)(O)OP(=O)(O)O)[C@@H](O)[C@H]2O)c(=O)[nH]1 [guanosine triphosphate]
The experiment in a line: NP40-soluble protein abundance relative to vehicle (solubility fold change) (ratio); higher = more soluble protein in presence of GTP. The gist of the method:
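Across three independent experiments, values are fold changes against the detergent-processed vehicle for each replicate, based on vsn-normalised intensities. The samples were Jurkat crude lysate treated with eight concentrations (0.1 to 10 mM) for 10 min at room temperature and then 3 min at 37 °C. Lysate was solubilised with 0.8% NP40 and benzonase, ultracentrifuged, and the supernatant analysed by TMT-labelled LC-MS/MS.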

For A0A087WW66|Q99460 (UniProt Q99460), the NP40-soluble protein abundance by setting is: (concentration: 0.1mM) 1.02 ± 0.089; (concentration: 0.5mM) 1.09 ± 0.13; (concentration: 1mM) 1.04 ± 0.15; (concentration: 2mM) 1.11 ± 0.19; (concentration: 4mM) 1.09 ± 0.15; (concentration: 6mM) 1.12 ± 0.2. The NP40-soluble protein abundance reads like this: (concentration: 8mM) 1.1 ± 0.19; (concentration: 10mM) 1.08 ± 0.19.

On to “A0A087WVA8|Q8IWB9 and related entries (UniProt Q8IWB9)”, for which the NP40-soluble protein abundance runs as follows: (concentration: 0.1mM) 0.983 ± 0.079; (concentration: 0.5mM) 0.892 ± 0.076; (concentration: 1mM) 0.95074 ± 8.4e-05; (concentration: 2mM) 0.958 ± 0.17; (concentration: 4mM) 0.946 ± 0.078; (concentration: 6mM) 0.9 ± 0.058. Moreover, the NP40-soluble protein abundance (concentration: 8mM) was 0.932 ± 0.017 and the NP40-soluble protein abundance (concentration: 10mM) amounted to 0.89 ± 0.064.

With A0A024R571|Q9H4M9 (UniProt Q9H4M9), the NP40-soluble protein abundance is, setting by setting: (concentration: 0.1mM) 0.995 ± 0.046; (concentration: 0.5mM) 0.994 ± 0.044; (concentration: 1mM) 0.939 ± 0.036; (concentration: 2mM) 0.934 ± 0.02; (concentration: 4mM) 0.913 ± 0.046; (concentration: 6mM) 0.912 ± 0.027. Also, the NP40-soluble protein abundance by setting is: (concentration: 8mM) 0.893 ± 0.039; (concentration: 10mM) 0.868 ± 0.058.

In the case of “A0A087WW84|E9PP15 and related entries (UniProt Q14114)”, the NP40-soluble protein abundance worked out at 1.04 ± 0.057 (concentration: 0.1mM); 0.998 ± 0.046 (concentration: 0.5mM); 0.967 ± 0.12 (concentration: 1mM); 0.944 ± 0.08 (concentration: 2mM); 0.919 ± 0.015 (concentration: 4mM); 0.994 ± 0.01 (concentration: 6mM). Moreover, the NP40-soluble protein abundance runs as follows: (concentration: 8mM) 1.02 ± 0.097; (concentration: 10mM) 0.981 ± 0.012.

On to “A0A087WVQ6|Q00610 and related entries (UniProt Q00610)”, for which the NP40-soluble protein abundance runs as follows: (concentration: 0.1mM) 1.04 ± 0.042; (concentration: 0.5mM) 1.09 ± 0.075; (concentration: 1mM) 1.01 ± 0.045; (concentration: 2mM) 1.02 ± 0.067; (concentration: 4mM) 0.991 ± 0.049; (concentration: 6mM) 0.982 ± 0.057. Moreover, the NP40-soluble protein abundance reads like this: (concentration: 8mM) 0.943 ± 0.017; (concentration: 10mM) 0.881 ± 0.052.

Consider “A0A087WVF7|Q9NZM3 and related entries (UniProt Q9NZM3)”, for which the NP40-soluble protein abundance is, setting by setting: (concentration: 0.1mM) 0.972 ± 0.061; (concentration: 0.5mM) 1.01 ± 0.03; (concentration: 1mM) 0.926 ± 0.094; (concentration: 2mM) 0.956 ± 0.097; (concentration: 4mM) 0.926 ± 0.094; (concentration: 6mM) 0.937 ± 0.077. The NP40-soluble protein abundance runs as follows: (concentration: 8mM) 0.956 ± 0.043; (concentration: 10mM) 0.975 ± 0.083.

As to A0A024RA52|P25787 (UniProt P25787), the NP40-soluble protein abundance (concentration: 0.1mM) came out at 1.04 ± 0.039; the NP40-soluble protein abundance (concentration: 0.5mM) worked out at 0.99 ± 0.039; the NP40-soluble protein abundance (concentration: 1mM) amounted to 1.1 ± 0.044; the NP40-soluble protein abundance (concentration: 2mM) turned out to be 1.02 ± 0.12; the NP40-soluble protein abundance (concentration: 4mM) amounted to 1.13 ± 0.14; the NP40-soluble protein abundance (concentration: 6mM) was 1.05 ± 0.15. Besides, the NP40-soluble protein abundance (concentration: 8mM) turned out to be 1.16 ± 0.14 and the NP40-soluble protein abundance (concentration: 10mM) is 1.01 ± 0.16.

As for “A0A087WWM4|F8WAN9 and related entries (UniProt Q9P2T1)”, the NP40-soluble protein abundance (concentration: 0.1mM) came out at 1.06 ± 0.058; the NP40-soluble protein abundance (concentration: 0.5mM) was 1.06 ± 0.08; the NP40-soluble protein abundance (concentration: 1mM) came to 1 ± 0.077; the NP40-soluble protein abundance (concentration: 2mM) was found to be 1 ± 0.053; the NP40-soluble protein abundance (concentration: 4mM) turned out to be 0.994 ± 0.051; the NP40-soluble protein abundance (concentration: 6mM) turned out to be 0.978 ± 0.068. Also, the NP40-soluble protein abundance (concentration: 8mM) is 1.01 ± 0.071 and the NP40-soluble protein abundance (concentration: 10mM) came to 0.985 ± 0.051.

On to “A0A024RCR6|A0A0G2JK23|P46379 and related entries (UniProt P46379)”, for which the NP40-soluble protein abundance runs as follows: (concentration: 0.1mM) 0.93 ± 0.085; (concentration: 0.5mM) 0.951 ± 0.058; (concentration: 1mM) 0.933 ± 0.062; (concentration: 2mM) 0.939 ± 0.05; (concentration: 4mM) 0.921 ± 0.097; (concentration: 6mM) 0.935 ± 0.061. In addition, the NP40-soluble protein abundance reads like this: (concentration: 8mM) 0.906 ± 0.07; (concentration: 10mM) 0.963 ± 0.085.

As for A0A087WUL2 (UniProt P49720), the NP40-soluble protein abundance is, setting by setting: (concentration: 0.1mM) 1.01 ± 0.088; (concentration: 0.5mM) 1.03 ± 0.12; (concentration: 1mM) 0.929 ± 0.16; (concentration: 2mM) 1.04 ± 0.24; (concentration: 4mM) 1.09 ± 0.28; (concentration: 6mM) 1 ± 0.28. Further, the NP40-soluble protein abundance is 0.958 ± 0.14 (concentration: 8mM) and 0.974 ± 0.13 (concentration: 10mM).

“A0A087WUK2|O14979-3|O14979 and related entries (UniProt O14979)”: the NP40-soluble protein abundance by setting is: (concentration: 0.1mM) 0.947 ± 0.074; (concentration: 0.5mM) 0.983 ± 0.03; (concentration: 1mM) 1.01 ± 0.019; (concentration: 2mM) 1.01 ± 0.068; (concentration: 4mM) 1.02 ± 0.11; (concentration: 6mM) 1.01 ± 0.062. The NP40-soluble protein abundance reads like this: (concentration: 8mM) 1.05 ± 0.13; (concentration: 10mM) 1.05 ± 0.13.

Consider “A0A087WWH3|Q9NZM4 and related entries (UniProt Q9NZM4)”, for which the NP40-soluble protein abundance runs as follows: (concentration: 0.1mM) 1.06 ± 0.018; (concentration: 0.5mM) 0.989 ± 0.1; (concentration: 1mM) 1.16 ± 0.19; (concentration: 2mM) 1.22 ± 0.1; (concentration: 4mM) 1.22 ± 0.15; (concentration: 6mM) 1.13 ± 0.33. Besides, the NP40-soluble protein abundance was found to be 1.2 ± 0.44 (concentration: 8mM) and 1.33 ± 0.38 (concentration: 10mM).

With A0A087WTJ2|Q8WWP7 (UniProt Q8WWP7), the NP40-soluble protein abundance worked out at 1.03 ± 0.021 (concentration: 0.1mM); 1.01 ± 0.017 (concentration: 0.5mM); 0.967 ± 0.0097 (concentration: 1mM); 0.956 ± 0.025 (concentration: 2mM); 0.947 ± 0.053 (concentration: 4mM); 0.911 ± 0.025 (concentration: 6mM). The NP40-soluble protein abundance is, setting by setting: (concentration: 8mM) 0.889 ± 0.067; (concentration: 10mM) 0.885 ± 0.06.
